No constants are given. Whether binding was seen depends on the method and setting. Some entries that bind do so weakly or less than the wild type.

Chains of the proteins cited; added tags and fusions are not shown. Lines headed by an entry give the natural chain unless they say otherwise; changes in a name come on top. Residues count along the entry.
UniProt P02453: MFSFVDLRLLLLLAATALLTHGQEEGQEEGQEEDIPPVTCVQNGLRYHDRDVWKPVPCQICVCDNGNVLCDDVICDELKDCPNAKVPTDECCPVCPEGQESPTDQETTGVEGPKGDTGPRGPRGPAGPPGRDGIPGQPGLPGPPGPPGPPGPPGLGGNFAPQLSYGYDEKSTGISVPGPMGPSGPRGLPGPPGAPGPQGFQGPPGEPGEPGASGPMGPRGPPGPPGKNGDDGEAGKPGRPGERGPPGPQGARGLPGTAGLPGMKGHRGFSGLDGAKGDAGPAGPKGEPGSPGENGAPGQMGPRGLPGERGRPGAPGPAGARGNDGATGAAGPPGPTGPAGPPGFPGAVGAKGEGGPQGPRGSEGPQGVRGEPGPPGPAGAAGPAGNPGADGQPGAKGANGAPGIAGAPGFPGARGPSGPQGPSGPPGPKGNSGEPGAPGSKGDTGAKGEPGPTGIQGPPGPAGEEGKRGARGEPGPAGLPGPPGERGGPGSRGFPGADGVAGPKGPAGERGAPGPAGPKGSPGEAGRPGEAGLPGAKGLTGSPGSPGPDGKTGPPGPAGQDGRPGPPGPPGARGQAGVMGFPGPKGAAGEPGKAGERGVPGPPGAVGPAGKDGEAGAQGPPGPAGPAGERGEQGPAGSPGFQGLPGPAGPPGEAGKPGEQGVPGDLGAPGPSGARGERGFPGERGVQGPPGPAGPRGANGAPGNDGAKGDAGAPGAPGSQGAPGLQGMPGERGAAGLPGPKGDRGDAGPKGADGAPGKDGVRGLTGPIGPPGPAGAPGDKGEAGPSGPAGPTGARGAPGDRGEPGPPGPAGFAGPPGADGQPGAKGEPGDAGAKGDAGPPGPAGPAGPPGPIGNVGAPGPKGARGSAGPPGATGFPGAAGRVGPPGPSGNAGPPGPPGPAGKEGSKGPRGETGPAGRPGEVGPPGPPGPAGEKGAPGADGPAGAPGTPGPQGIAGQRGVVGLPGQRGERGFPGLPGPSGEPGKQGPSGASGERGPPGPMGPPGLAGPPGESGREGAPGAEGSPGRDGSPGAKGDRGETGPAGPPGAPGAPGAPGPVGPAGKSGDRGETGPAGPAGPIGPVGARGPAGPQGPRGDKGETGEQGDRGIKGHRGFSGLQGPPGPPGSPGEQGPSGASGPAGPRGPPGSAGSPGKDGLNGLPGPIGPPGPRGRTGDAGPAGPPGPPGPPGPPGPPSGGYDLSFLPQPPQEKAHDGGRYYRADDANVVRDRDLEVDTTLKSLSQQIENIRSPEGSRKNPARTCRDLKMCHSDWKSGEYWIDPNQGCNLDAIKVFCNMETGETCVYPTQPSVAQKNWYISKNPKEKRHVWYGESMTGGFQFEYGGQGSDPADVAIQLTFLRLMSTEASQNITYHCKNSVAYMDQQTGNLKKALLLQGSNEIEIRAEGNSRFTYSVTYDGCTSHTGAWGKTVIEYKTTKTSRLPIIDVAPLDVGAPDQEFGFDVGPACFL
UniProt Q9HCN6, residues 21-267: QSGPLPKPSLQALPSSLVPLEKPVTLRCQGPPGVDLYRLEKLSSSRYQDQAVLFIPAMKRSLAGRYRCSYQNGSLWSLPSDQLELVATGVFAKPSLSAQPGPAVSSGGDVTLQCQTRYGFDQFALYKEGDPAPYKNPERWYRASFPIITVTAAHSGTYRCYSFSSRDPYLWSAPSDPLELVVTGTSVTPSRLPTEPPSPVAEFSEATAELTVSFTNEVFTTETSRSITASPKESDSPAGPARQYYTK

This assay deals with T1, bovine collagen I (bovine, UniProt P02453 162-1217; P02465 80-1117, limits assumed).
T1 construct: also called immobilized collagen I; soluble collagen I
Put plainly: ELISA on immobilized bovine collagen I. The protocol:
Fc-protein was used as negative control.
An Immulon 2 HB 96-well plate (NUNC, Rochester, N.Y.) was coated with 0.1 ml 1 μg/ml bovine collagen I in 15 mM Na₂CO3, 35 mM NaHCO3, pH 9.6 o/n at 4° C. Wells were washed with PBS-T, blocked with 0.1 ml 1× RotiBlock (Roth, Karlsruhe, Germany) in PBS-T for one hour and washed again before addition of 0.1 ml of threefold dilutions of fusion protein. After one hour incubation at RT with shaking, wells were washed with PBS-T. Wells were incubated with 0.1 ml anti-human IgG-HRP (Dianova, Hamburg, Germany) 1:10000 in PBS-T for one hour at RT with shaking. The plate was washed with PBS-T and incubated with 0.1 ml 1-Step Ultra TMB-ELISA (PIERCE, Rockford, Ill.). After blue staining had developed sufficiently, reactions were stopped by addition of 0.1 ml 1 M H₂SO₄. Absorbance was measured at 450 nm and 595 nm as a reference wavelength using an infinite F200 plate reader (TECAN, Männedorf, Switzerland). EC₅₀ values were calculated with Sigma Plot 11 using Four Parameter Logistic.
Background: An ELISA detects its analyte on a solid surface through an enzyme-linked reagent.

In the case of “GPVI-FcIgG1 (from UniProt Q9HCN6 21-267) (Fc fusion)”, the binding result is “binds”.

(Values after patent US20130130315A1 (ADVANCECOR, published 2013).)
